Data from PubChem BioAssay AID1347131 (National Center for Advancing Translational Sciences (NCATS), 2019).
Among all 410,000 compounds or so, about 2,000 (0.49%) were called active. The call rests on the fitted dose curve; tested in HEK293 reporter line. Inconclusive results, whose numbers are uncertain, are shown. Where the call is inconclusive, the potency comes from a doubtful curve fit.

assay: qHTS Assay for Foot and Mouth Disease Virus Antivirals: Primary Screen against the MLPCN compound library; conditions: FMDV antiviral cell-based qHTS; series mostly up to 57.9 µM; further: nearly all actives have a fitted effect of over 55% in size
Potency means the concentration at half of the fitted maximal effect.

SMILES	Potency
COC(=O)c1sc(-c2ccc(C(C)(C)C)cc2)cc1NC(=O)COCC(=O)O	inconclusive: 11.2 µM [inhibitor, partial curve]
Cc1ccccc1N/N=C/c1sc(=O)n(Cc2cccc(C(=O)O)c2)c1Cl	inconclusive: 14.1 µM [inhibitor, partial curve]
